Literature values, collected in US4249005A, “Alkoxymethyl and benzyloxymethyl phenobarbital compounds” (priority 1969, dated 1981).
At least one compound was matched to its structure with a doubt left.

Details: long known; treatment of epilepsy; cited from earlier work

Structure (SMILES): O=C1NC(=O)C(c2ccccc2)(c2ccccc2)N1 [diphenylhydantoin]
- anticonvulsant usefulness: useful as anticonvulsant agents in warm-blooded animals
